The list shows a part of the results. Shown are side measurements of this screen, not its main read-out; they come without a call. The list favours compounds with an active or inconclusive main result. Potencies come from curve fits of mixed quality, noted in brackets.

The nature of the experiment: qHTS Assay for Lipid Storage Modulators in Drosophila S3 Cells.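 On cell number change: cells counted by Cell Tracker Red CMTPX staining in the red channel.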 The conditions noted are these: BODIPY lipid droplet fluorescence, 18-24 h; for cell number change: measured here: cell count max response, cells fed with added oleic acid. In a few lines: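 Drosophila S3 cells loaded with oleic acid (400 uM, as added) and compounds at several concentrations; lipid droplets imaged by 488-nm laser-scanning cytometry, 500–530 nm intensity and object ratio to cell channel. Percent activity normalized to 20 uM Triacsin C.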
In general terms: Quantitative high-throughput screening tests each substance at several concentrations.

Where [1] appears, read: measured here: lipid fluorescence (Fed channel) AC50, cells fed with added oleic acid.
Where [2] appears, read: measured here: cell number channel AC50, cells fed with added oleic acid.

For orientation: AC50 means the concentration giving half of the maximal activity seen. Read a low AC50 as greater potency. As for `Cc1coc2cc3oc(=O)c4c(c3cc12)CCCC4`, the cell number change is 0.741%. In addition, the AC50 under setting [1] was 1.3 µM [rising, partial curve].
On to `Cc1nc(CCNC(=O)C2CCC(=O)N(Cc3cccc(F)c3)C2)sc1C` (stereo not drawn), for which the cell number change was -10.5%.
Take `COc1ccc2oc(C(=O)N3CCN(c4ncccn4)CC3)c(C)c2c1`: the cell number change was found to be 12.9%. The AC50 under setting [1] was 6.51 µM [rising, single point].
On to `Cc1ccc(NC(=O)C(=O)NC2CCCCC2)cc1`, for which the cell number change came to 19.2%. In addition, the AC50 under setting [1] was 0.0146 µM [rising, full curve].
As to `O=C(N/N=C/c1ccncc1)c1nc(-c2ccccc2)n2c1CCCCC2`, the cell number change came out at 34.4%. The AC50 under setting [2] was 14.6 µM [rising, partial curve, poor fit].
`O=C1CCN(CCc2ccccc2)CCN1CCSc1ccccc1`: the cell number change came to 10.2%. The concentration at half-maximal activity (AC50) under setting [1] was 29.1 µM [falling, single point].
With `O=C(COc1ccccc1Cl)NCCCNC(=O)c1cccnc1`, the cell number change turned out to be 32.1%. In addition, under setting [2], the concentration at half-maximal activity (AC50) is 29.1 µM [rising, partial curve, poor fit].
`CCN(CC)S(=O)(=O)c1cccc(C(=O)NCC2CCCO2)c1` (stereo not drawn): the cell number change is -6.59%. Further, the half-maximal activity concentration (AC50) under setting [1] was 0.326 µM [rising, full curve, poor fit].
For the compound `O=C(NNC(=O)C1CCN(S(=O)(=O)c2ccccc2C(F)(F)F)CC1)c1ccccc1O`, the cell number change stood at 82.5%. Moreover, under setting [2], the AC50 was 4.61 µM [rising, full curve].
As for `CCN(C(=O)Cn1nc(C)n2c(cc3cc(C)ccc32)c1=O)c1ccccc1`, the cell number change was -2.29%.
`CC1CCCC(NC(=O)CSC2=Nc3ccccc3C3CC=NN23)C1C` (stereo not drawn): the cell number change is -5.91%. The AC50 under setting [2] was 0.0103 µM [rising, full curve, poor fit]. Moreover, the AC50 under setting [1] was 29.1 µM [falling, single point].
In the case of `CC1=CC2=NCC(O)CN2C=C1` (stereo not drawn), the cell number change is -47%. Also, the AC50 under setting [2] is 3.66 µM [falling, full curve]. For the same compound, the AC50 under setting [1] was 3.66 µM [falling, full curve].
With `COc1ccc(OC)c(NC(=O)C2CCCN(S(=O)(=O)c3ccc(-n4cnnn4)cc3)C2)c1` (stereo not drawn), the cell number change is -9.57%.
Turning to `CC(C)(C)n1nnnc1CN(Cc1cccnc1)Cc1ccccc1Cl`, the cell number change is -4.96%. The AC50 under setting [1] is 1.46 µM [rising, partial curve].
For the compound `COc1ccc(C(=O)CC(=O)C(=O)Nc2ccccc2)cc1`, the cell number change was determined as 25.5%.
`CCOC(=O)c1cccnc1SC(CC)C(=O)NCc1ccco1` (stereo not drawn): the cell number change is 71.6%. Further, the half-maximal activity concentration (AC50) under setting [2] was 23.1 µM [rising, partial curve, poor fit]. Besides, under setting [1], the AC50 is 3.66 µM [falling, full curve, poor fit].
Consider `C#CCOCCOCCOCCNc1nc(N2CCN(C(=O)[C@H]([C@@H](C)CC)n3cc(CCCN=C(N)N)nn3)CC2)nc(N2CCN(C(=O)[C@H](C)n3cc(CCCN=C(N)N)nn3)CC2)n1`, for which the cell number change came to 2.6%. For the same compound, under setting [1], the AC50 is 0.00461 µM [falling, full curve, poor fit].

For the origin of these results see PubChem BioAssay AID2685 (National Center for Advancing Translational Sciences (NCATS), 2010).
